{
  "source": "patent US20030186355A1",
  "about": "“Methods for selecting and producing t cell peptide epitopes and vaccines incorporating said selected epitopes” (priority 2000, published 2003)",
  "key": {"20S proteasomes [1]": {"tested_on": "20S proteasomes", "assay": "In vitro proteasome mediated digestions of 27-mer PRAME polypeptides", "format": "biochemical, human", "settings": "incubation 1 h, 4 h, 24 h at 37° C."}, "20S proteasomes [2]": {"tested_on": "20S proteasomes", "assay": "Proteasome digestion assay of 26-mer synthetic peptide substrates, fragments analysed by electrospray mass spectrometry", "format": "biochemical, mouse", "settings": "for Intensity as a percentage of the total amount of intensity of the peak fragments: fragments of substrates 5A Moloney, 5B AKV, 5C Friend MuLV"}, "[3]": {"settings": "correct C-terminal residue of the CTL-epitope generated from the 26-mer substrate"}},
  "note": "Where two headings read alike, the source gives them in different places.",
  "data": [
    {"compound": "CC(C)C[C@H](NC(=O)[C@@H](NC(=O)[C@H](CC(=O)O)NC(=O)[C@H](CC(C)C)NC(=O)CNC(=O)[C@H](CC(=O)O)NC(=O)[C@H](CC(C)C)NC(=O)[C@@H](NC(=O)[C@H](C)N)C(C)C)C(C)C)C(=O)O", "values": [
      {"measurement": "generation/excision of the peptide by the proteasome from 27-mer PRAME polypeptide", "setting": "20S proteasomes [1]", "value": "not found"}
    ]},
    {"compound": "CC(C)C[C@H](NC(=O)CN)C(=O)N[C@@H](CC(=O)O)C(=O)N[C@H](C(=O)N[C@@H](CC(C)C)C(=O)N[C@@H](CC(C)C)C(=O)N[C@@H](C)C(=O)N[C@@H](CCC(N)=O)C(=O)N[C@@H](CCC(=O)O)C(=O)N[C@H](C(=O)O)C(C)C)C(C)C", "values": [
      {"measurement": "generation/excision of the peptide by the proteasome from 27-mer PRAME polypeptide", "setting": "20S proteasomes [1]", "value": "not found"}
    ]},
    {"compound": "CSCC[C@H](N)C(=O)N[C@@H](CC(C)C)C(=O)N[C@H](C(=O)N[C@@H](CC(=O)O)C(=O)N[C@H](C(=O)N[C@@H](CO)C(=O)N1CCC[C@H]1C(=O)N[C@@H](CCC(=O)O)C(=O)N1CCC[C@H]1C(=O)N[C@@H](CC(C)C)C(=O)O)C(C)C)[C@@H](C)O", "values": [
      {"measurement": "generation/excision of the peptide by the proteasome from 27-mer PRAME polypeptide", "setting": "20S proteasomes [1]", "value": "not generated"}
    ]},
    {"compound": "CC[C@H](C)[C@H](NC(=O)[C@@H](N)CO)C(=O)N[C@@H](CO)C(=O)N[C@@H](C)C(=O)N[C@@H](CC(C)C)C(=O)N[C@@H](CCC(N)=O)C(=O)N[C@@H](CO)C(=O)N[C@@H](CC(C)C)C(=O)N[C@@H](CC(C)C)C(=O)O", "values": [
      {"measurement": "generation/excision of the peptide by the proteasome from 27-mer PRAME polypeptide", "setting": "20S proteasomes [1]", "value": "not generated"}
    ]},
    {"compound": "CC(C)C[C@H](NC(=O)[C@@H](N)CO)C(=O)N[C@@H](Cc1ccc(O)cc1)C(=O)N[C@@H](CO)C(=O)N[C@@H](Cc1ccccc1)C(=O)N1CCC[C@H]1C(=O)N[C@@H](CCC(=O)O)C(=O)N1CCC[C@H]1C(=O)N[C@@H](CCC(=O)O)C(=O)N[C@@H](C)C(=O)O", "values": [
      {"measurement": "generation/excision of the peptide by the proteasome from 27-mer PRAME polypeptide", "setting": "20S proteasomes [1]", "value": "already found after 1 h digestion in significant quantities"}
    ]},
    {"compound": "CC(C)C[C@H](NC(=O)[C@H](C)NC(=O)[C@H](CCC(N)=O)NC(=O)[C@H](CC(C)C)NC(=O)[C@H](CS)NC(=O)[C@H](CCC(N)=O)NC(=O)[C@H](CC(C)C)NC(=O)[C@H](CO)NC(=O)[C@H](CC(C)C)NC(=O)[C@@H](N)Cc1ccccc1)C(=O)O", "note": "[FLSLQCLQAL]", "values": [
      {"measurement": "generation/excision of the peptide by the proteasome from 27-mer PRAME polypeptide", "setting": "20S proteasomes [1]", "value": "not C-terminally generated"}
    ]},
    {"compound": "QSLLQHLIGL [PRAME aa; 424-433 digestion fragment]", "values": [
      {"measurement": "generation/excision of the peptide by the proteasome from 27-mer PRAME polypeptide", "setting": "20S proteasomes [1]", "value": "generated abundantly after 1 h digestion"}
    ]},
    {"compound": "SSWDFITV [reference compound]", "values": [
      {"measurement": "generation of peptide fragment by the 20S proteasome", "setting": "20S proteasomes [2]", "value": "only generated in very low amounts"}
    ]},
    {"compound": "SWDFITV [proteasome fragment of substrate 5A]", "values": [
      {"measurement": "Intensity as a percentage of the total amount of intensity of the peak fragments", "setting": "20S proteasomes [2]; digestion time 1 h", "value": 45, "unit": "%"},
      {"measurement": "Intensity as a percentage of the total amount of intensity of the peak fragments", "setting": "20S proteasomes [2]; digestion time 4 h", "value": 64, "unit": "%"},
      {"measurement": "Intensity as a percentage of the total amount of intensity of the peak fragments", "setting": "20S proteasomes [2]; digestion time 24 h", "value": 72, "unit": "%"}
    ]},
    {"compound": "SWDYITV [proteasome fragment of substrate 5B]", "values": [
      {"measurement": "Intensity as a percentage of the total amount of intensity of the peak fragments", "setting": "20S proteasomes [2]; digestion time 4 h", "value": 41, "unit": "%"},
      {"measurement": "Intensity as a percentage of the total amount of intensity of the peak fragments", "setting": "20S proteasomes [2]; digestion time 24 h", "value": 75, "unit": "%"}
    ]},
    {"compound": "SWDYITVD [proteasome fragment of substrate 5C]", "values": [
      {"measurement": "Intensity as a percentage of the total amount of intensity of the peak fragments", "setting": "20S proteasomes [2]; digestion time 4 h", "value": 35, "unit": "%"},
      {"measurement": "Intensity as a percentage of the total amount of intensity of the peak fragments", "setting": "20S proteasomes [2]; digestion time 24 h", "value": 69, "unit": "%"}
    ]},
    {"compound": "SWVTLSTDDPVIDRLYLSSHRGVIAD [26-mer substrate, Measles HA, reference compound]", "values": [
      {"measurement": "correct C-terminus", "setting": "20S proteasomes [2]", "value": "yes"}
    ]},
    {"compound": "TGRASWKPSSSWDYITV [proteasome fragment of substrate 5B]", "values": [
      {"measurement": "Intensity as a percentage of the total amount of intensity of the peak fragments", "setting": "20S proteasomes [2]; digestion time 1 h", "value": 14, "unit": "%"},
      {"measurement": "Intensity as a percentage of the total amount of intensity of the peak fragments", "setting": "20S proteasomes [2]; digestion time 4 h", "value": 12, "unit": "%"}
    ]},
    {"compound": "TGRASWKPSSSWDYITVSNNLTSDQA [26-mer substrate 5B, AKV MuLV, reference compound]", "values": [
      {"measurement": "Intensity as a percentage of the total amount of intensity of the peak fragments", "setting": "20S proteasomes [2]; digestion time 1 h", "value": 57, "unit": "%"}
    ]},
    {"compound": "TGRAYWKPSSSDWFITV [proteasome fragment of substrate 5A]", "values": [
      {"measurement": "Intensity as a percentage of the total amount of intensity of the peak fragments", "setting": "20S proteasomes [2]; digestion time 1 h", "value": 18, "unit": "%"}
    ]},
    {"compound": "TGRAYWKPSSSWDFITVNNNLTSDQA [26-mer substrate, MuLV (Moloney), reference compound]", "values": [
      {"measurement": "correct C-terminus", "setting": "20S proteasomes [2]", "value": "yes"},
      {"measurement": "C-terminal cleavage site by the 20S proteasome", "setting": "20S proteasomes [2]; listed as Moloney MuLV peptide substrate", "value": "preferential cleavage after the C-terminal V"},
      {"measurement": "C-terminal cleavage site by the 20S proteasome", "setting": "20S proteasomes [2]; listed as SA", "value": "cleavage after V"}
    ]},
    {"compound": "TGRAYWKPSSSWDYITVD [proteasome fragment of substrate 5C]", "values": [
      {"measurement": "Intensity as a percentage of the total amount of intensity of the peak fragments", "setting": "20S proteasomes [2]; digestion time 1 h", "value": 21, "unit": "%"},
      {"measurement": "Intensity as a percentage of the total amount of intensity of the peak fragments", "setting": "20S proteasomes [2]; digestion time 4 h", "value": 25, "unit": "%"}
    ]},
    {"compound": "TGRAYWKPSSSWDYTTVDNNLTTNQA [26-mer substrate 5C, Friend MuLV, reference compound]", "values": [
      {"measurement": "Intensity as a percentage of the total amount of intensity of the peak fragments", "setting": "20S proteasomes [2]; digestion time 1 h", "value": 60, "unit": "%"},
      {"measurement": "C-terminal cleavage site by the 20S proteasome", "setting": "20S proteasomes [2]; listed as 5C", "value": "cleavage after D"},
      {"measurement": "C-terminal cleavage site by the 20S proteasome", "setting": "20S proteasomes [2]; listed as Friend MuLV peptide substrate", "value": "no cleavage after valine, but dominantly after aspartic acid (D)"}
    ]},
    {"compound": "TIRRAYPDTNLLNDRVLRAMLKTEET [26-mer substrate, Cyclin D1, reference compound]", "values": [
      {"measurement": "correct C-terminus", "setting": "20S proteasomes [2]; [3]", "value": "yes"}
    ]},
    {"compound": "YEPPEAGSEYTTIHYKYMCNSSCMGG [26-mer substrate, P53, reference compound]", "values": [
      {"measurement": "correct C-terminus", "setting": "20S proteasomes [2]; [3]", "value": "yes"}
    ]}
  ]
}
